By UniProt entry, the sequences of proteins in these tests, tags left out.
UniProt Q13535: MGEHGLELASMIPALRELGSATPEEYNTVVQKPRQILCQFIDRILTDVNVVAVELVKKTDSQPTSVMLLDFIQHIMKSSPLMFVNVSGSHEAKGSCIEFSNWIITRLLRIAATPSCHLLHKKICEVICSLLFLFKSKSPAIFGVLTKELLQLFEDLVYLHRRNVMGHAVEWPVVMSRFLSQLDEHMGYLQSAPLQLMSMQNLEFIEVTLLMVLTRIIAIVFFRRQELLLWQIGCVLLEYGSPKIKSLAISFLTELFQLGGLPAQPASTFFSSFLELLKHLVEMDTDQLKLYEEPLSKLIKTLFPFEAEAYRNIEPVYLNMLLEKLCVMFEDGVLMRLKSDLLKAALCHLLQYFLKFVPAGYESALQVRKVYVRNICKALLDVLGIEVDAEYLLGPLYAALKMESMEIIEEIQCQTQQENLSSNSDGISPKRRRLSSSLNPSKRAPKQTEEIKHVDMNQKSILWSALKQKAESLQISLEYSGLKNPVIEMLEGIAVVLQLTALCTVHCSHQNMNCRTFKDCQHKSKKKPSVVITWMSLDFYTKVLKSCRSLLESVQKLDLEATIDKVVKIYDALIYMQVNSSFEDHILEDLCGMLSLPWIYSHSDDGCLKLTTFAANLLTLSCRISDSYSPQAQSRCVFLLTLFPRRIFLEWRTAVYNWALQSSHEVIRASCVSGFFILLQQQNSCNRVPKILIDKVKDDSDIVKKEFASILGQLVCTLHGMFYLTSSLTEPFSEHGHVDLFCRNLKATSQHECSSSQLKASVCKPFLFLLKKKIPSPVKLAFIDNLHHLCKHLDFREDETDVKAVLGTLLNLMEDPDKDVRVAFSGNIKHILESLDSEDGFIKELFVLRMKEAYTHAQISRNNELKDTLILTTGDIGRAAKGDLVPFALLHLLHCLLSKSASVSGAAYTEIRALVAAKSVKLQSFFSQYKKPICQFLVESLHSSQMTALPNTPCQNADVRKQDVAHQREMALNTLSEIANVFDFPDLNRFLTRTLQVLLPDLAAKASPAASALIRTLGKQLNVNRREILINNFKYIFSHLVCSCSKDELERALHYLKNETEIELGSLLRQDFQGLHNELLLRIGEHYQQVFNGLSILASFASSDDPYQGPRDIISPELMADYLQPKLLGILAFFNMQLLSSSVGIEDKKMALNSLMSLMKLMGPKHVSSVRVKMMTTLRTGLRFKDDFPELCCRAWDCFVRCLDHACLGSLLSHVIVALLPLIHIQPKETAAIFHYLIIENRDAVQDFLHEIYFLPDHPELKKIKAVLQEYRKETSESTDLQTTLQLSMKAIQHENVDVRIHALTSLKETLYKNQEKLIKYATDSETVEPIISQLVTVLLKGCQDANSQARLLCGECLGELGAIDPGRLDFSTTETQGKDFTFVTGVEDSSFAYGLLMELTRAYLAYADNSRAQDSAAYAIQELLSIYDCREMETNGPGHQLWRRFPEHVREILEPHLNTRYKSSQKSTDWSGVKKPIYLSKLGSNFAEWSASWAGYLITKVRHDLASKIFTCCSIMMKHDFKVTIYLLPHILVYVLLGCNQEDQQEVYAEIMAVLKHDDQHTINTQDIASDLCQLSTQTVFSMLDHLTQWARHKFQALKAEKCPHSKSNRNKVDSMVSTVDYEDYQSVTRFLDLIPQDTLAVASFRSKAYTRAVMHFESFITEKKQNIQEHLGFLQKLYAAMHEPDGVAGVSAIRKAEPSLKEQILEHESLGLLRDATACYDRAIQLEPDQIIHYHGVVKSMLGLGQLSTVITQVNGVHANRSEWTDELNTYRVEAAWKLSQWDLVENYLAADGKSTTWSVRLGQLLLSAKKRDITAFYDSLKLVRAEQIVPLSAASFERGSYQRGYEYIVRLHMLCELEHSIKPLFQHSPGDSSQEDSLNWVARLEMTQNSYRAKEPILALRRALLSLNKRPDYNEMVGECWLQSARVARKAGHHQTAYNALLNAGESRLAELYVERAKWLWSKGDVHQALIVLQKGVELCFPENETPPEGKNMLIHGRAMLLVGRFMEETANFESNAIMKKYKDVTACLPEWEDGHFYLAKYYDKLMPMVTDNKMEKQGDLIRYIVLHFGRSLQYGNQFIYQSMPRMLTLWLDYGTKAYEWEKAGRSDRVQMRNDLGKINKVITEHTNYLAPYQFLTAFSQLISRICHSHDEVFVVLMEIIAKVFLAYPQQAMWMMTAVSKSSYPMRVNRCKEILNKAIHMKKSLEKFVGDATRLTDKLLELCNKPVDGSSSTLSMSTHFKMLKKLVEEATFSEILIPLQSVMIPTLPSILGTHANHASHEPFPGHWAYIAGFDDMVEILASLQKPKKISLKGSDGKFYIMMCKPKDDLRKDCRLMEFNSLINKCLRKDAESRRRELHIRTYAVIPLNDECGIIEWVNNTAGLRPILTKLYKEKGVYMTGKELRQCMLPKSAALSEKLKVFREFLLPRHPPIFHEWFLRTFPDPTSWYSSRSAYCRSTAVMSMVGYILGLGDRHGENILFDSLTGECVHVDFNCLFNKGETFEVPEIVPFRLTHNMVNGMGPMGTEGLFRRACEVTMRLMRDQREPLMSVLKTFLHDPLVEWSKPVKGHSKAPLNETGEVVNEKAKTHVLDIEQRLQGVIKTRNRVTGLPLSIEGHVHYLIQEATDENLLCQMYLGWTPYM
UniProt P11387: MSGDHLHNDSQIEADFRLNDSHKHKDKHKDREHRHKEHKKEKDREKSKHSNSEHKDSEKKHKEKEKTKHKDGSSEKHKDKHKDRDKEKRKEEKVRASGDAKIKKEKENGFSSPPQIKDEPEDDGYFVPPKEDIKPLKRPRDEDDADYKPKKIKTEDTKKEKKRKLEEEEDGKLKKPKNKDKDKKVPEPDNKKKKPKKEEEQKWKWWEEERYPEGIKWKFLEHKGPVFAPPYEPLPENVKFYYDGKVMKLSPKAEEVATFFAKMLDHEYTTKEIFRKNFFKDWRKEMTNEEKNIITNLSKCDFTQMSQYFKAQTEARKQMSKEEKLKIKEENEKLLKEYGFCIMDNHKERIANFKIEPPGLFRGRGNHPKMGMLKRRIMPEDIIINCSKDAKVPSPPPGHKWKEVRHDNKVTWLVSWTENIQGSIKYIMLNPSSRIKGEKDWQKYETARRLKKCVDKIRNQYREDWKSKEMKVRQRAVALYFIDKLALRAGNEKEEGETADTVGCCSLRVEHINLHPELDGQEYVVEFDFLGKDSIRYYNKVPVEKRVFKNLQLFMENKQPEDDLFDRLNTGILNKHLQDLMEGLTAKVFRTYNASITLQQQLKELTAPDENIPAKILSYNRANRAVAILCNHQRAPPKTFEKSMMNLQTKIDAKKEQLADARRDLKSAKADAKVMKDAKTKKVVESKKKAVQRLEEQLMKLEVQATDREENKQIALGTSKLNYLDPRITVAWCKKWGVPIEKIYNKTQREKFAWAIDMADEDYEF
UniProt P12956: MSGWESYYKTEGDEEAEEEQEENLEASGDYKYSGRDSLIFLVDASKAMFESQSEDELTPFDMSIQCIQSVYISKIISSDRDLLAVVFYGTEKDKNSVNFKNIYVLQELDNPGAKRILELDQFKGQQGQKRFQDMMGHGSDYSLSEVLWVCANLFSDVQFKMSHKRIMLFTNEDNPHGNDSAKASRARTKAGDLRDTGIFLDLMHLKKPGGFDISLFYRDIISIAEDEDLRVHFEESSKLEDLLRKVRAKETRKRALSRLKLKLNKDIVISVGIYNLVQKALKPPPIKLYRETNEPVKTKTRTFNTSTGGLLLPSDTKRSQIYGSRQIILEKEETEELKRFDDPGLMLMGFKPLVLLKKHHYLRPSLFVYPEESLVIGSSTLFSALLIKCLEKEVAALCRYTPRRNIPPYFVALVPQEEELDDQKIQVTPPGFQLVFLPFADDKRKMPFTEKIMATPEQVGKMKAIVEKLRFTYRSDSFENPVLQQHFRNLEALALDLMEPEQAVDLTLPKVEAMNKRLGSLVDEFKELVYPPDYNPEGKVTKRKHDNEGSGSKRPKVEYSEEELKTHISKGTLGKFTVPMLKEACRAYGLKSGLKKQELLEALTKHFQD

In paper PMC2576351:

Biological target: S-Tax-GFP (HTLV-1) (UniProt P03409)
Assay: affinity purification with mass spectrometry; S-Tax-GFP bound to S-agarose beads incubated with pre-cleared Jurkat nuclear lysate, 4°C, 60 minutes, 25 mM HEPES pH 7.5, 150 mM NaCl, 1% NP-40, 10 mM MgCl2, 1 mM EDTA, 1% glycerol; on-bead trypsin digest, LC-MS/MS; three runs combined; S-GFP beads as control; only the target purified

Substance | binding
ATR (from UniProt Q13535 1-2644) | no binding
DNA-dependent Protein Kinase catalytic subunit (DNA-PKcs) (from UniProt P78527 1-4128) | binds
PARP (from UniProt P09874 1-1014) | binds
TOP1 (from UniProt P11387 1-765) | binds
Vimentin (from UniProt P08670 1-466) | binds
XRCC6 (from UniProt P12956 1-609) | binds

No constants are given. Whether binding was seen depends on the method and setting. Binding seen in cells or lysates may run through a third protein. A yes stands for co-enrichment or nearness to the bait. Other partners may have been found. No binding means not detected with the bait.
